At least one structure is not confirmed: it was looked up by name or label, or the drawing left a doubt.
Legend:
[1] = system: pro-fibrotic signaling; test: pro-fibrotic signaling, in vitro; type: cell-based
[2] = system: patients with cGVHD; conditions: cited from earlier work

Row | Compound | aberrant pro-fibrotic signaling [1] | overall response rate (ORR) [2] [%]
1 | CC(C)NC(=O)COc1cccc(-c2nc(Nc3ccc4[nH]ncc4c3)c3ccccc3n2)c1 [belumosudil, 2-{3-[4-(1H-indazol-5-ylamino)-2-quinazolinyl]phenoxy}-N-(propan-2-yl) acetamide] | inhibited aberrant pro-fibrotic signaling | 
2 | C=CC(=O)N1CCC[C@@H](n2nc(-c3ccc(Oc4ccccc4)cc3)c3c(N)ncnc32)C1 [ibrutinib] |  | 67
